Drawing on US20230279090A1 (Genentech, published 2023), this text covers Kd for 2 molecules.

This test has as its target T1, VEGF.
T1 chain: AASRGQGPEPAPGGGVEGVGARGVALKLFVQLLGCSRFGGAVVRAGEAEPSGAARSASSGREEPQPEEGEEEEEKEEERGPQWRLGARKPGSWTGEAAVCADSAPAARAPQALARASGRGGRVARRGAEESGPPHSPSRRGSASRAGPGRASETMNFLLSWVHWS
In words: SPR; antigen immobilized directly on CM5 chip. (Surface plasmon resonance follows binding to a sensor surface in real time, without labels.)

B1: VC072M.GS10X.VG1CTH (other)
chain: GCNIMLPYWGCGRDFECMEQCICQYYQSCGGSGSGSGSGSGSGSGSGSGSLHKVKVGKSPPVRGSLSGKVSLPCHFSTMPTLPPSYNTSEFLRIKWSKIEVDKNGKDLKETTVLVAQNGNIKIGQDYKGRVSVPTHPEAVGDASLTVVKLLASDAGLYRCDVMYGIEDTQDTVSLTVDGVVFHYRAATSRYTLNFEAAQKACLDVGAVIATPEQLFAAYEDGFEQCDAGWLADQTVRYPIRAPRVGCYGDKMGKAGVRTYGFRSPQETYDVYCYVDHLDGDVFHLTVPSKFTFEEAAKECENQDARLATVGELQAAWRNGFDQCDYGWLSDASVRHPVTVARAQCGGGLLGVRTLYRFENQTGFPPPDSRFDAYCFKPKEGNSHHHHHHHH
notes: also called Fusion 5
As for B1, the affinity, expressed as Kd, was 0.75 nM.

B2: VG1NTH.GS10X.VC072M (other)
chain: HHHHHHHHLHKVKVGKSPPVRGSLSGKVSLPCHFSTMPTLPPSYNTSEFLRIKWSKIEVDKNGKDLKETTVLVAQNGNIKIGQDYKGRVSVPTHPEAVGDASLTVVKLLASDAGLYRCDVMYGIEDTQDTVSLTVDGVVFHYRAATSRYTLNFEAAQKACLDVGAVIATPEQLFAAYEDGFEQCDAGWLADQTVRYPIRAPRVGCYGDKMGKAGVRTYGFRSPQETYDVYCYVDHLDGDVFHLTVPSKFTFEEAAKECENQDARLATVGELQAAWRNGFDQCDYGWLSDASVRHPVTVARAQCGGGLLGVRTLYRFENQTGFPPPDSRFDAYCFKPKEGNSGSGSGSGSGSGSGSGSGSGSGCNIMLPYWGCGRDFECMEQCICQYYQSCG
notes: also called Fusion 6
In turn, B2 yielded a Kd of 0.55 nM.

As usually defined, the Kd is the equilibrium constant for the complex coming apart.
